Test results reported in paper PMC10163288.
The list shows a part of the results.

B1: il2ra_site2_2erj_sap_26_mot_HHH_b1_05386_000000188_0001_22_38_H_._fd0a9d037eb77d912a268a88faf82d0b_0001_0001_0000200003_0000001_0_0001 (protein)
chain: SSSSSEDSVRVWELLKELAEAAERGDEELFEELFEEAEKLAKEGNNPLLERFVKLQYERWSSSSS
B2: il2ra_site2_3nfp_normal_mot_HHH_b1_00660_af2_000000090_0001_40_57_H_._HHH_b1_05943_0001_0000500031_0000001_0_af2pred_0001_af2pred (protein)
chain: SSSSSDEEEEEVEELMEEAKHVPDPEKREELLARARLLAYELKNFELFAKLLEILERLNSSSSSS
B3: il2ra_site2_3nfp_sap_22_mot_HHH_b2_01049_000000044_0001_19_35_H_._HHH_b1_00008_0001_0000100001_0000001_0_0001_af2pred_0001_af2pred (protein)
chain: SSSSEETEEFAREVVERLVEEYKLSEEQQRLLELAAELALEAGADEEYIESWLELLARLLSSSSS
B4: il2ra_site2_2erj_normal_mot_HHH_b1_01555_af2_000000123_0001_22_39_H_._HHH_b1_02219_af2_0001_0000100006_0000001_0 (protein)
chain: SSSSSQREEVLEAARELVEEAEEKGDKELLELLERFVELTLEEVGDPKLEELLEEIRKLLSSSSS
B5: il2ra_site1_3nfp_normal_mot_66bb1f637706d7249e1dd387c51866da_0001_1_000000092_0001_54_65_H_._ce8578411c818e85008b652dcd9ad55d_0001_1_af2_0001_0000300006_0000001 … (protein)
chain: SEEEEAEREAKEKGLVSPKAIKLAKRFIEEAQRQLPPEEALREVLRILRRAGDPEAALFVELVLR
B6: il2ra_site1_3nfp_normal_mot_HHH_b1_05523_000000054_0001_1_19_H_._HHH_b2_04834_af2_0001_0000200024_0000001_0 (protein)
chain: SSSSDEHEELERLLREAFELAKRGDEEEAREVLEEAIKLAEELNSREHLRSLEAAVRLIERSSSS
B7: il2ra_site1_3nfp_sap_24_mot_HHH_b2_06429_af2_000000115_0001_1_18_H_._HHH_b1_08445_af2_0001_0000100015_0000001_0_0001_af2pred_0001_af2pred_swapped (protein)
chain: SSSSDEVRRAQELAKEIQRLLREGDPEEARELLEELRELAKKANSRAAKRYVEELERRINSSSSS
B8: il2ra_site2_3nfp_normal_mot_HHH_b1_05918_af2_000000127_0001_23_40_H_._HHH_b2_01690_0001_0000300022_0000001_0 (protein)
chain: SSSSSELEEYLRAALLLLEEALEEGDEEAFRRHARLIKLLAETANDEEVREEVERLLEEFDSSSS
B9: il2ra_site2_3nfp_normal_mot_HHH_b2_01406_000000272_0001_41_55_H_._HHH_b2_00362_0001_0000600032_0000001_0 (protein)
chain: SSSSSDEEEEELEERLEKALEEGDKHLAAQLAAELSELLARLNDPETAVRLAVKVLEFVLSSSSS
B10: il2ra_site1_3nfp_sap_17_mot_HHH_b1_02637_af2_000000026_0001_1_18_H_._HHH_b1_04098_af2_0001_0000200016_0000001_0_0001 (protein)
chain: NRAKELAREALEKNDPELLREVLEMVREQARLPPEDAVKFVRLQLKWLGILTPELEEILRELLEK
B11: il2ra_site1_2b5i_sap_15_mot_417dcdf3126cc1de7a956bebb2b613e5_0001_1_000000286_0001_54_65_H_._dd49bf3528da6f37616b30d4057d0d98_0001_0001_0000100001_0000001_0_000 … (protein)
chain: SSSSDEKYDEIERLYKEALELWKQGKYEEAKEKLEKAIKLAEEAKDEVLLKDLKTLLERLKSSSS
B12: il2ra_site1_2b5i_sap_18_mot_0921d739bb7547bb6fa23329820ad62a_0001_000000012_0001_54_65_H_._HHH_b2_07807_0001_0000200011_0000001_0_0001 (protein)
chain: SSSSTERVKYIVRVVLRLAYRYNLSMEQMQELTELADELYQRGYSEEEIEEELEEKAKQLGSSSS
B13: il2ra_site1_3nfp_normal_mot_1dfc56a8f07a39e834a69883c800ee5d_0001_1_af2_000000099_0001_1_15_H_._b407ad934e5250b8240dbd3ef2c13209_0001_0001_0000300021_0000001_0 (protein)
chain: TAIVELILEAIEKNNEQDLRALRQLLERAEKRLPDPELRRLIELLIEAVEKKDPELVEEVRELVN
B14: il2ra_site2_3nfp_sap_23_mot_HHH_b2_08245_000000023_0001_41_55_H_._HHH_b2_07820_0001_0000400031_0000001_0_0001 (protein)
chain: SSSSEAEEYIRAALALAKEAAERNDPMAERHLELIRLMIESLGDEEAERLLEEIERLLRELSSSS
B15: il2ra_site1_1z92_sap_9_mot_HHH_b1_07916_af2_000000003_0001_3_15_H_._5d1becb6a9d54c9d42db3f0d03ab68b4_0001_0001_0000200028_0000001_0_0001 (protein)
chain: SSSSTREMARKAAEIVAEVIREFNLSDEEALELLKLADELLLNGYSEEEIKEILEELAHKSSSSS
B16: il2ra_site2_2erj_sap_19_mot_HHH_b2_01275_af2_000000073_0001_23_39_H_._HHH_b1_01063_af2_0001_0000200019_0000001_0_0001 (protein)
chain: SSSSDKLRELYELAVEVLRAVARGDEEEAERLLEEAKELAEELDSPNAREALENNKRLLKSSSSS
B17: il2ra_site1_3nfp_normal_mot_HHH_b1_03236_000000173_0001_17_33_H_._HHH_b1_06261_0001_0000400033_0000001_0 (protein)
chain: SSSSTEEEREASRLAQEIWELLKEGDKERVEELLEELEELAERLNDKVAEWFIRQVKELLSSSSS
B18: il2ra_site2_2erj_sap_31_mot_HHH_b1_06697_000000025_0001_41_54_H_._HHH_b2_04809_af2_0001_0000400004_0000001_0_0001 (protein)
chain: SSSSDEEERIEELVREIVEELGLSEEQRELLELAAKLAAERGLDEESIERLLRAYAELQRSSSSS
B19: il2ra_site2_3nfp_normal_mot_HHH_b2_07129_000000128_0001_19_36_H_._HHH_b1_05778_af2_0001_0000100001_0000001_0_af2pred_0001_1_af2pred_swapped (protein)
chain: SSSSDEEEEVERLLEKLEELVKRNDEEKFKRLAHKIAELIRELGDRRLFAILVEILLKFQRSSSS
B20: il2ra_site2_3nfp_sap_20_mot_HHH_b2_08245_000000272_0001_41_55_H_._787d21e84ebc3972f9e9a690c5e11347_0001_af2_0001_0000400015_0000001_0_0001 (protein)
chain: SDPELAELALELAEIWAAIHNDEELQEEVRELKEELEEAKKNNDEEKVERVAQLAAEIIERALES
B21: il2ra_site1_3nfp_sap_13_mot_HHH_b2_03549_000000219_0001_1_18_H_._HHH_b1_05723_af2_0001_0000600022_0000001_0_0001 (protein)
chain: SSSSSEIREEVEELLEEARRLMEEGNFREAVKVAEEAMRLAARAADDELDQLIMEWLRKLSSSSS
B22: il2ra_site2_2erj_sap_19_mot_HHH_b2_07688_000000103_0001_43_57_H_._HHH_b2_07873_af2_0001_0000200034_0000001_0_0001 (protein)
chain: SSSSSSAEEALRMVEELVEKNDREEIEYILMFLELTLKATGSPEIEEAFELVEELLEQLRRSSSS
B23: il2ra_site2_2erj_sap_21_mot_HHH_b1_00376_000000139_0001_38_52_H_._HHH_b2_08330_0001_0000700006_0000001_0_0001_af2pred_0001_af2pred (protein)
chain: SSSSSSDSEEEVERLLEEARHIPNLREALKLLQEADRIADERDDEELIELVDKVLRELSSSSSSS
B24: il2ra_site2_3nfp_normal_mot_HHH_b2_06150_000000230_0001_39_53_H_._HHH_b2_07317_0001_0000100008_0000001_0 (protein)
chain: SSSSSDVEELLEQVEEAIEEGDLELARRLLARAAQLAYELGDTELFYRVAELVLELERLKSSSSS
B25: il2ra_site1_1z92_normal_mot_HHH_b2_04375_000000267_0001_42_56_H_._c3a59189b182c38a193c256a3bd90efb_0001_1_0001_0000100007_0000001_0_af2pred_0001_af2pred_1_swapp … (protein)
chain: SEEEAEEFLEELAPPEAREVLKNDKEKAEKAGIPPERVLRVLALALARSLEDPRVKEEVEKLLRK
B26: il2ra_site1_3nfp_sap_12_mot_HHH_b1_07560_af2_000000209_0001_40_57_H_._HHH_b1_00637_0001_0000300019_0000001_0_0001_af2pred_0001_af2pred_1_swapped (protein)
chain: SELEEVLRELRERFKDDPEVEEVLELIKEAAEKGDVRLVRELLKRLLRVLGDPELVLALMRAMAK
B27: il2ra_site2_2erj_sap_18_mot_dcd9809507f71d420582ead1f1e1bbb3_0001_000000226_0001_37_50_H_._HHH_b2_00445_0001_0000200006_0000001_0_0001 (protein)
chain: SSSSDESEEILQEAREEIRELLENGNYHEAFRVLTEAAARLMKLGDIEALRELAEFVHKVSSSSS
B28: il2ra_site2_2erj_normal_mot_HHH_b2_02500_af2_000000175_0001_19_35_H_._HHH_b2_05903_0001_0000100010_0000001_0 (protein)
chain: SSSSSEELRRLYELADELMRAVWEGDEEAVEEIFEEIEKLAKEAQSESAREIAELLLRLFNSSSS
B29: il2ra_site1_3nfp_sap_7_mot_HHH_b2_01582_af2_000000000_0001_1_16_H_._856d6656b12a78c2cacd0d35356dc32d_0001_0001_0000400011_0000001_0_0001_af2pred_0001_af2pred (protein)
chain: SSSSDKAAKRARHLLARAILLLKQGNPEEAEKVAQEALRVAEEGNDERAREEIERLLEEIGSSSS
B30: il2ra_site2_2erj_normal_mot_HHH_b1_03097_000000125_0001_21_38_H_._HHH_b1_03595_af2_0001_0001000037_0000001_0 (protein)
chain: SSSSDEEEAEKLLEELERALEEGDEELFEKLAEKVSQVVYKLGDPQLFAALQELLFLAQQASSSS
B31: il2ra_site1_2b5i_normal_mot_3116615af0ee64d731c1c85d8523bf51_0001_000000216_0001_15_32_H_._HHH_b2_02526_af2_0001_0000300024_0000001_0_af2pred_dldesign_0_af2pred (protein)
chain: SSSSSPLAEKAEAAIAKARELKAAGKLREALELLEEIHKEVSAADDEELLARIEEVARELSSSSS
B32: il2ra_site2_2erj_sap_24_mot_HHH_b1_01310_000000213_0001_39_52_H_._HHH_b2_00637_af2_0001_0000100001_0000001_1_0001 (protein)
chain: SSSSNEELRRLYELAELLIRLITEGDREEFEEVLREAEELAEKLDSETAKRILENLHRRLSSSSS
B33: il2ra_site1_2b5i_normal_mot_HHH_b2_04910_000000118_0001_1_19_H_._HHH_b1_04383_0001_0000600015_0000001_0_af2pred_0001_af2pred_1 (protein)
chain: SSSSNEEEAKRARELFEEANRLDKNGNPEKARELLEEAEELAREAGSKALLKMIEIALRSISSSS
B34: il2ra_site1_2b5i_normal_mot_HHH_b2_04910_000000118_0001_1_19_H_._HHH_b1_05382_0001_0000100006_0000001_0 (protein)
chain: SSSSSEAARLFREYFKQADEADKRGNPEEAEELLEELIRLLRELNNPAFVRSAEVALKNLKSSSS
B35: il2ra_site2_2erj_normal_mot_HHH_b1_04462_000000080_0001_40_56_H_._HHH_b2_05347_0001_0000300010_0000001_0 (protein)
chain: SSSSDEEEVRRLLEEAQEAFEEGDLELVFRLRDKALHVASKTQNQELIELVARVTEEIQKSSSSS
B36: il2ra_site2_3nfp_normal_mot_HHH_b2_05976_000000001_0001_22_38_H_._HHH_b2_00952_0001_0000500028_0000001_0 (protein)
chain: SSSSDVEEEVEKLLEQAEELYRKGNPEEVRKILAEATHLAYEARNHELFALIQEFLSRLESSSSS
B37: il2ra_site2_3nfp_sap_12_mot_HHH_b1_03475_af2_000000198_0001_19_35_H_._HHH_b2_05651_0001_0000200010_0000001_0_0001 (protein)
chain: SSSSSKAEEYLRAALKIARLALEAGDPESARRIAEIALQAAEDQGDEELEEEIRKLLEEIGSSSS

target: il2ra, P01589; test: yeast display titration

Apparent Kd, inactive:
B1 no binding seen
B2 no binding seen
B3 no binding seen
B4 no binding seen
B5 no binding seen
B6 no binding seen
B7 no binding seen
B8 no binding seen
B9 no binding seen
B10 no binding seen
B11 no binding seen
B12 no binding seen
B13 no binding seen
B14 no binding seen
B15 no binding seen
B16 no binding seen
B17 no binding seen
B18 no binding seen
B19 no binding seen
B20 no binding seen
B21 no binding seen
B22 no binding seen
B23 no binding seen
B24 no binding seen
B25 no binding seen
B26 no binding seen
B27 no binding seen
B28 no binding seen
B29 no binding seen
B30 no binding seen
B31 no binding seen
B32 no binding seen
B33 no binding seen
B34 no binding seen
B35 no binding seen
B36 no binding seen
B37 no binding seen

Quoted at random: three records from the list
Apparent Kd, inactive:
B7 no binding seen
B36 no binding seen
B4 no binding seen
